Some of the results follow. These are further read-outs of the screen, such as a control signal, another cell line or another target. No call is given for them. Most of these compounds were active or inconclusive in the main read-out, so they are no random draw. Potencies come from curve fits of mixed quality, noted in brackets.
Assay: qHTS Assay for Lipid Storage Modulators in Drosophila S3 Cells;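 on cell number change: cells counted by Cell Tracker Red CMTPX staining in the red channel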
Conditions: BODIPY lipid droplet fluorescence, 18-24 h; for cell number change: measured here: cell count max response, cells fed with added oleic acid
Outline: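 Laser-scanning cytometry quantifies lipid droplet accumulation (500–530 nm total intensity; droplet/cell object ratio) in oleic acid-fed (400 uM added) Drosophila S3 cells treated with a concentration series. 20 uM Triacsin C defined 100% inhibition.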

[1] = measured here: lipid fluorescence (Fed channel) AC50, cells fed with added oleic acid
[2] = measured here: cell number channel AC50, cells fed with added oleic acid

| Compound | cell number change [%] | AC50 [1] | AC50 [2] |
| --- | --- | --- | --- |
| COc1ccc(C(=O)N2c3cc4c(cc3C(C)=CC2(C)C)OCO4)cc1 | 14.8 |  |  |
| CCCn1nnc(NC(=O)/C=C/c2cc(Br)ccc2OC)n1 |  | 6.51 µM [rising, single point] |  |
| CC(C)c1ccc(/C=C/C(=O)NC(=S)Nc2ccc(CN3CCOCC3)cc2)cc1 | -1.91 | 23.1 µM [falling, partial curve, poor fit] |  |
| Cc1ccc(-n2c(=S)[nH]c3nc4c(cc3c2=O)COC(C)(C)C4)cc1 | -36.1 | 0.13 µM [falling, full curve] | 0.164 µM [falling, full curve] |
| Cc1onc(-c2ccccc2Cl)c1C(=O)N1CCN(c2ccccc2)CC1 |  |  | 0.58 µM [falling, single point] |
| CNC(=O)COc1ccc(Nc2nnc(C)c3ccccc23)cc1 | -3.91 |  | 0.0461 µM [rising, single point] |
| COc1ccc(Br)c(C(=O)OCC(=O)N2CCC(Cc3ccccc3)CC2)c1 | -40.1 |  | 7.31 µM [falling, partial curve] |
| COCCSc1nnc(NS(=O)(=O)c2ccc(C)cc2)s1 | 19.8 | 14.6 µM [rising, partial curve, poor fit] |  |
| COCC(=O)N/N=C\c1ccc(OC/C=C/c2ccccc2)c(OC)c1 | 19.2 | 29.1 µM [falling, single point] |  |
| CN(C)S(=O)(=O)N1CCN(C(=O)c2cccs2)CC1 | 8.7 |  |  |
| O=C(COC(=O)c1ccccn1)Nc1cc(Cl)ccc1Cl | -24.5 |  | 0.82 µM [falling, full curve] |
| COC(=O)c1cccc(NC(=O)CN2C(=O)c3ccccc3C2=O)c1 | -5.11 |  |  |
| O=C(NCC1CC1)C1CCCN(S(=O)(=O)c2ccc(-n3cnnn3)cc2)C1 (centres undefined) | 47.4 |  | 29.1 µM [rising, single point] |
| CCc1ccc(CCC(=O)Nc2sc(C)c(C)c2C(=O)OC)o1 | 42.9 |  |  |
| COC(=O)C1(Cc2cc(-c3ccccc3)no2)CCN(C(=O)OC(C)(C)C)CC1 | -3.89 | 6.51 µM [falling, single point] |  |
| CCn1c(-c2c[nH]c3ccccc23)n[nH]c1=S | 12.4 | 6.51 µM [rising, single point] |  |
| CC(=O)Nc1ccc(SCC(=O)Nc2cc(C)on2)cc1 | 3.01 | 16.4 µM [falling, single point] |  |
| N#C/C(=C(/O)COC(=O)CCc1ccc(S(=O)(=O)N2CCOCC2)cc1)c1nc2ccccc2[nH]1 | 16.3 | 4.11 µM [falling, full curve] |  |
| O=C(NNc1ccccc1Br)C(=O)n1ccc2ccccc21 | -37.1 | 4.11 µM [rising, partial curve, poor fit] | 29.1 µM [falling, single point] |

Quoted from the listing:
`N#C/C(=C(/O)COC(=O)CCc1ccc(S(=O)(=O)N2CCOCC2)cc1)c1nc2ccccc2[nH]1` – cell number change [%]: 16.3
`O=C(NCC1CC1)C1CCCN(S(=O)(=O)c2ccc(-n3cnnn3)cc2)C1` (centres undefined) – AC50 [2]: 29.1 µM [rising, single point]

Source: PubChem BioAssay AID2685 (National Center for Advancing Translational Sciences (NCATS), 2010)
